In data set [1] the target is T1, ParBc (Thermus thermophilus HB27) (UniProt Q72H91).
T1 sequence (looked up, limits assumed): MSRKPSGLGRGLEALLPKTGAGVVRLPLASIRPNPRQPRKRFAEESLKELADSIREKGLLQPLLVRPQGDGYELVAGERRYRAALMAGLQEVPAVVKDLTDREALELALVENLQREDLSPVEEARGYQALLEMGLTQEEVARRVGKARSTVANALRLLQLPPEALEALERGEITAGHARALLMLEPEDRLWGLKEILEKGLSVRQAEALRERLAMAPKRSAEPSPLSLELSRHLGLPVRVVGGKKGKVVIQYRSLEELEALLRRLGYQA
The data set is described as follows: competition with a labelled probe. Particulars: 50 mM KCl, 10 mM Tris-HCl pH 7.0, 1 mM EDTA, 1 mM DTT, 4% glycerol, 0.02 ug/ul poly(dI-dC), 25 ul, 15 pmol FAM probe, 0 or 200 pmol ParB (competition), 25 C 30 min, recombinant protein.

The target in data set [2] is T2, ParBm (Thermus thermophilus HB27) (UniProt Q746H2).
T2 sequence (looked up, limits assumed): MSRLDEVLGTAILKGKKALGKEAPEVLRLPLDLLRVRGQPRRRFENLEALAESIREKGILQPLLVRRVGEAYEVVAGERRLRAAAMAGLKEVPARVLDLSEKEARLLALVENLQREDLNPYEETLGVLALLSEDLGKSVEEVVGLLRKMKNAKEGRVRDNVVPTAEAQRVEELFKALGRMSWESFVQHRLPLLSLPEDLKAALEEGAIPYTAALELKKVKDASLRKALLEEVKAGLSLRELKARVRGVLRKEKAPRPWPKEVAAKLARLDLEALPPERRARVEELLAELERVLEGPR
The data set is described as follows: competition with a labelled probe. Particulars: 50 mM KCl, 10 mM Tris-HCl pH 7.0, 1 mM EDTA, 1 mM DTT, 4% glycerol, 0.02 ug/ul poly(dI-dC), 25 ul, 15 pmol FAM probe, 0 or 200 pmol ParB (competition), 25 C 30 min, recombinant protein.

The exact form of at least one protein or probe is not confirmed. A weaker result is weaker than the reference pair of the same experiment. Where a protein sequence is shown, tags need not be part of it. At least one verdict was read from the data and is not stated in words by the source.

In the case of “CGTGCCCAGGGAGACCTCAGGCGCC (double strand) [Mu parSc 25-bp competitor]”, the binding result in data set [1] (unlabeled competitor vs FAM-WT parSc, competes much less than WT) is “binds more weakly”; in data set [2] (unlabeled competitor vs FAM-WT parSc, competes even better than WT parSc, nonspecific) it was “binds”.
As to “GCTGTGTGCAGGCCTTCA (double strand) [Mu parSm 18-bp competitor]”, the binding result is “binds” in data set [1] (unlabeled competitor vs FAM-WT parSm, competes even better than WT parSm, nonspecific) and “binds more weakly” in data set [2] (unlabeled competitor vs FAM-WT parSm, competes much less than WT).

The values above are taken from PMC4409726, “Characterization of chromosomal and megaplasmid partitioning loci in Thermus thermophilus HB27”.
